Experimental data reported in article PMC8758767.
No constants are given. Whether binding was seen depends on the method and setting. In cells and extracts the contact can be indirect. Some entries that bind do so weakly or less than the wild type.

Sequences of proteins named here, by UniProt entry; tags and fusion partners are left off.
UniProt P09211: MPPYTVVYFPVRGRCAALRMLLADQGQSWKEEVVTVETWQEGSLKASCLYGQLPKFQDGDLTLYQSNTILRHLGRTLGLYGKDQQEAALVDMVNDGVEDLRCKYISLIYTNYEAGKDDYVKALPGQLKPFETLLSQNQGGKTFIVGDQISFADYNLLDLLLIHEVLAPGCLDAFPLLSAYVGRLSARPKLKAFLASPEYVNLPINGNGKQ
UniProt P45983: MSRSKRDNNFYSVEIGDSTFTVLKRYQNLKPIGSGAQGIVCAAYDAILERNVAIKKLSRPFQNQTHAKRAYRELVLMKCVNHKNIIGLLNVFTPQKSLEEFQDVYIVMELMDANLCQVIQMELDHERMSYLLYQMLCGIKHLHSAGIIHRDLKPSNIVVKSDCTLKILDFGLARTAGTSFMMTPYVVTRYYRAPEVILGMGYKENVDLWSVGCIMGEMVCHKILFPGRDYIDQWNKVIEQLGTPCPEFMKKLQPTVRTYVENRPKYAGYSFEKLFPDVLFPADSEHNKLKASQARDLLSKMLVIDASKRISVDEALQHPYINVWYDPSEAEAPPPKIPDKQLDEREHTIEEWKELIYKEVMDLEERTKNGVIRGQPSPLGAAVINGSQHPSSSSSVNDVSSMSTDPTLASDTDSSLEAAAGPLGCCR

Legend:
[1] = molecular target: GSTπ (human (endogenous in MDA-MB-436 and MCF-7)) (UniProt P09211); assay: condition: only in HBXIP/Nrf2 knock-down cells (Prdx1 downregulated); co-IP; cellular protein extracts of ECM-detached HBXIP/Nrf2 knock-down breast cancer cells (Prdx1 downregulated; with or without NAC) immunoprecipitated with an anti-GSTπ antibody; JNK1 and Prdx1 detected by western blotting
[2] = molecular target: GSTπ (human (endogenous in MDA-MB-436 and MCF-7)) (UniProt P09211); assay: co-IP; cellular protein extracts of ECM-detached stable MDA-MB-436 and MCF-7 cell lines (control, HBXIP/Nrf2 overexpression, HBXIP or Nrf2 overexpression in HBXIP/Nrf2 KD cells; with or without H2O2 or NAC) immunoprecipitated with an anti-GSTπ antibody; goat IgG as negative control; JNK1 and Prdx1 detected by western blotting

Molecule | binding [1] | binding [2]
JNK1 (from UniProt P45983 1-427) | no binding | binds
peroxiredoxin 1 (Prdx1) (protein, UniProt Q06830 1-199) MSSGNAKIGHPAPNFKATAVMPDGQFKDISLSDYKGKYVVFFFYPLDFTFVCPTEIIAFSDRAEEFKKLNCQVIGASVDSHFCHLAWVNTPKKQGGLGPMNIPLVSDPKRTIAQDYGVLKADEGISFRGLFIIDDKGILRQITVNDLPVGRSVDETLRLVQAFQFTDKHGEVCPAGWKPGSDTIKPDVQKSKEYFSKQK | – | binds
